According to the supplement of paper PMC11098740:
Some of the results follow. Many values rest on one well or one pass, so single values are uncertain.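 Pooled together, 41 HAP1 clones carry intronic fluorescent tags on 61 cancer-associated proteins, and each clone is recognized by its imaging pattern. Measurements are benchmarked against DMSO-treated control wells. dBET6, a BRD4 degrader, served as the positive control.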

Chains of the proteins cited; added tags and fusions are not shown.
UniProt O14980, whole entry: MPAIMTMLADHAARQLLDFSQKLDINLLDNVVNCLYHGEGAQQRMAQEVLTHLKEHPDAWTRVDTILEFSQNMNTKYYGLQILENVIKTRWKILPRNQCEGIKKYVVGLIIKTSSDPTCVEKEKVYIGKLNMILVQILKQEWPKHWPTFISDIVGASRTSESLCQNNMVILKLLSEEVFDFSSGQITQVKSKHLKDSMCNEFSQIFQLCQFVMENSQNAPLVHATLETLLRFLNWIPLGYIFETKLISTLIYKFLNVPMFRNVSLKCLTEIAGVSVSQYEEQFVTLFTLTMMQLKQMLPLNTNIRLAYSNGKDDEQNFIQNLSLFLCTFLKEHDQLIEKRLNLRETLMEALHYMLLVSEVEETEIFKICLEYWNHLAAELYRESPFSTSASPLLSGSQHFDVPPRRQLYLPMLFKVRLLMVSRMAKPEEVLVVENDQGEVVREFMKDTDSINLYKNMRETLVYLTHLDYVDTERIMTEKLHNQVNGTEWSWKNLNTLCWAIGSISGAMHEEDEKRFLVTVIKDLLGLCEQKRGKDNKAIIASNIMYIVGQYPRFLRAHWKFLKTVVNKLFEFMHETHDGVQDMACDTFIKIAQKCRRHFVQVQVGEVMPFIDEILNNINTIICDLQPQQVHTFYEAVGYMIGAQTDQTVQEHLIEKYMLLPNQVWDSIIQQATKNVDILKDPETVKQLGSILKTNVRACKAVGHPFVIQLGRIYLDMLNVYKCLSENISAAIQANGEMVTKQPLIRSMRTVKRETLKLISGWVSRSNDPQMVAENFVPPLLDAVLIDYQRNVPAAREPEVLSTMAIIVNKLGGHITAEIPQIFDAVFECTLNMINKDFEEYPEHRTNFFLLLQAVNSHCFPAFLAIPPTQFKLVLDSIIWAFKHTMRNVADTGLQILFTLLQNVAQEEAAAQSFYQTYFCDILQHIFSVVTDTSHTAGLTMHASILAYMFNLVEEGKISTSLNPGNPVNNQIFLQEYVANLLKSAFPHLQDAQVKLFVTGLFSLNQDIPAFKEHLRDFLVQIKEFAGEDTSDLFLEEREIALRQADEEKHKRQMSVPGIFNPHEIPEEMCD

Tests used:
[1] = molecular target: XPO1 (intron 15 mScarlet tag, HAP1) (UniProt O14980); test: XPO1 fluorescence intensity change vs DMSO (log2 fold change); higher = more XPO1 protein; conditions: 6 h
[2] = molecular target: BRD4 (intron 10 mScarlet tag, HAP1) (UniProt O60885); test: BRD4 median nuclear fluorescence intensity change vs DMSO (log2 fold change); higher = more BRD4 protein; conditions: 6 h

SMILES	XPO1 fluorescence intensity change (log2) [1]	BRD4 median nuclear fluorescence intensity change (log2) [2]
COc1ccc(-c2nc(-c3ccc(O)c(O)c3)cs2)cc1 (10 µM)	0.0283	0.0966
CCC(C)(C)C1CCC(=NNc2ccccn2)CC1 (stereo not drawn) (10 µM)	0.018	0.309
CCOC(CCl)/S(=N\S(=O)(=O)c1ccc(C)cc1)c1ccccc1[N+](=O)[O-] (stereo not drawn) (10 µM)	-0.0831	0.00314
Cc1ccc(C(=O)C2CCN(c3ncnc4ccsc34)CC2)cc1 (10 µM)	0.0672	0.0371
CN(C)c1ccc(C(=NC(=O)c2ccc(NS(=O)(=O)c3cccs3)cc2)c2ccc(N(C)C)cc2)cc1 (10 µM)	-0.253	0.0701
O=C(COc1ccccc1)Nc1ncc(Cc2cccc(C(F)(F)F)c2)s1 (10 µM)	0.0676	0.0551
COc1ccc2nc(C)c(C(=O)Nc3nc(-c4ccccn4)cs3)cc2c1 (10 µM)	-0.0119	0.0233
CN(CC(=O)NCc1ccco1)C(=O)c1ccc(-c2ccccc2)cc1 (10 µM)	-0.286	0.116
O=c1c(Cl)c(Cl)cnn1Cc1ccccc1Cl (1 µM)	-0.00214	0.216
CCOc1ccccc1OCc1nc(N)nc(Nc2ccc(C)cc2)n1 (1 µM)	-0.214	-0.179
COc1ccc(-n2ccc(C(=O)Nc3cccnc3N(C)C)n2)cc1 (1 µM)	-0.0148	-0.0397
O=C(CCCn1c(=O)oc2ccccc21)Nc1cccc(-c2ccsc2)c1 (0.1 µM)	-0.0942	0.0224
Cc1cccc(C(=O)Nn2cnc3sc(C)c(C)c3c2=O)n1 (10 µM)	-0.0896	0.00474
Cn1c(=O)c(F)c(Nc2ccc(I)cc2F)c2c(=O)n(C[C@@H](O)CO)cnc21 (10 µM)	0.0419	0.0323

Three structures already listed, arranged by SMILES length, largest number first.
SMILES	XPO1 fluorescence intensity change (log2) [1]	BRD4 median nuclear fluorescence intensity change (log2) [2]
CN(CC(=O)NCc1ccco1)C(=O)c1ccc(-c2ccccc2)cc1 (10 µM)	-0.286	0.116
Cc1cccc(C(=O)Nn2cnc3sc(C)c(C)c3c2=O)n1 (10 µM)	-0.0896	0.00474
CCC(C)(C)C1CCC(=NNc2ccccn2)CC1 (stereo not drawn) (10 µM)	0.018	0.309
